{"source": "PubChem BioAssay AID743121 (NCATS, 2013)", "aim": "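Genes whose silencing strengthens cell killing by camptothecin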 (primary screen)", "cells": "MDA-MB-231 cells, a human breast cancer line", "reagents": "single siRNA against human genes, 20 nM siRNA (0.8 pmol per well)", "time to read-out": "120 h (drug added 48 h after transfection, read 72 h later)", "challenge": "camptothecin 20 nM (about EC30) for 72 h; vehicle 0.1% DMSO in parallel plates", "measured": "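CellTiter-Glo ATP signal, scaled to control siRNA as percent viability; sensitisation given as log2 of untreated divided by camptothecin-treated viability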", "reading the numbers": "log2 vehicle/camptothecin viability: higher = stronger sensitisation to camptothecin", "call rule": "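Each gene scored by redundant siRNA activity (RSA) over its individual siRNA ratios; a gene is called active at p < 0.001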", "note": "In all, the deposit lists about 26,000 reagents; this is a part drawn at random. In the full data, 167 (0.63%) are marked active. 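Calls are per gene from RSA p-values that are not deposited; an individual active-marked siRNA can sensitise only weakly.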 A number with no mark means an inactive call. Reagents against one gene are numbered here. Further read-outs or replicates are left out here."}
{"Gene":"IL21","siRNA no.":1,"log2 vehicle/camptothecin viability":-0.234}
{"Gene":"IL21","siRNA no.":2,"log2 vehicle/camptothecin viability":0.474}
{"Gene":"IL21","siRNA no.":3,"log2 vehicle/camptothecin viability":-0.453}
{"Gene":"SLC9B1","siRNA no.":1,"log2 vehicle/camptothecin viability":0.0508}
{"Gene":"SLC9B1","siRNA no.":2,"log2 vehicle/camptothecin viability":-0.172}
{"Gene":"SLC9B1","siRNA no.":3,"log2 vehicle/camptothecin viability":-0.409}
{"Gene":"SLC9B1","siRNA no.":4,"log2 vehicle/camptothecin viability":-0.0357}
{"Gene":"PSMA3","siRNA no.":1,"log2 vehicle/camptothecin viability":0.109}
{"Gene":"PSMA3","siRNA no.":2,"log2 vehicle/camptothecin viability":-0.369}
{"Gene":"PSMA3","siRNA no.":3,"log2 vehicle/camptothecin viability":-0.173}
{"Gene":"PSMA3","siRNA no.":4,"log2 vehicle/camptothecin viability":0.361}
{"Gene":"MOGS","siRNA no.":1,"log2 vehicle/camptothecin viability":-0.569}
{"Gene":"MOGS","siRNA no.":2,"log2 vehicle/camptothecin viability":0.224}
{"Gene":"MOGS","siRNA no.":3,"log2 vehicle/camptothecin viability":0.0843}
{"Gene":"MOGS","siRNA no.":4,"log2 vehicle/camptothecin viability":0.25}
{"Gene":"RDX","siRNA no.":1,"log2 vehicle/camptothecin viability":0.531}
{"Gene":"RDX","siRNA no.":2,"log2 vehicle/camptothecin viability":-0.547}
{"Gene":"RDX","siRNA no.":3,"log2 vehicle/camptothecin viability":-0.03}
{"Gene":"RDX","siRNA no.":4,"log2 vehicle/camptothecin viability":-0.154}
{"Gene":"OR8U8","siRNA no.":1,"log2 vehicle/camptothecin viability":-0.22}
{"Gene":"OR8U8","siRNA no.":2,"log2 vehicle/camptothecin viability":-0.523}
{"Gene":"OR8U8","siRNA no.":3,"log2 vehicle/camptothecin viability":-0.349}
{"Gene":"IGSF10","siRNA no.":1,"log2 vehicle/camptothecin viability":-0.0972}
{"Gene":"IGSF10","siRNA no.":2,"log2 vehicle/camptothecin viability":-0.409}
{"Gene":"IGSF10","siRNA no.":3,"log2 vehicle/camptothecin viability":-0.348}
{"Gene":"IGSF10","siRNA no.":4,"log2 vehicle/camptothecin viability":-0.197}
{"Gene":"GNG12","siRNA no.":1,"log2 vehicle/camptothecin viability":-0.31}
{"Gene":"GNG12","siRNA no.":2,"log2 vehicle/camptothecin viability":-0.3}
{"Gene":"GNG12","siRNA no.":3,"log2 vehicle/camptothecin viability":0.805}
{"Gene":"HR","siRNA no.":1,"log2 vehicle/camptothecin viability":-0.443}
{"Gene":"HR","siRNA no.":2,"log2 vehicle/camptothecin viability":-0.0431}
{"Gene":"HR","siRNA no.":3,"log2 vehicle/camptothecin viability":0.185}
{"Gene":"AEBP1","siRNA no.":1,"log2 vehicle/camptothecin viability":-0.339}
{"Gene":"AEBP1","siRNA no.":2,"log2 vehicle/camptothecin viability":-0.0938}
{"Gene":"AEBP1","siRNA no.":3,"log2 vehicle/camptothecin viability":-0.558}

Reformatted: 2 of the entries above
Gene | siRNA no. | log2 vehicle/camptothecin viability
RDX | 4 | -0.154
OR8U8 | 1 | -0.22
